Data source: PubChem BioAssay AID602196 (INSERM, 2012)

- Aim: 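Genes whose knock-down alters cisplatin killing of lung cancer cells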
- Cell system: human A549 lung cancer cells
- Knock-down reagent: siRNA pair against human genes
- Time to read-out: 48 h transfection before cisplatin; time from cisplatin to read-out not stated
- Conditions: cisplatin at a dose killing half of control-siRNA cells; exact dose and duration not given
- Read-out: 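Cisplatin cell death as a shift from the 50% death seen with control siRNA; siRNAs toxic or growth-blocking alone scored 0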
- Direction: two-siRNA summed score (-2 to +2): higher = both siRNAs protect from cisplatin killing; -2 means both sensitise; mean protection from cisplatin (shift in death): higher = protection from cisplatin killing
- Rule for the call: 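siRNAs harmful alone (LDH or WST-1) get 0; others get +1 for less and -1 for more cisplatin killing; genes are active when the two siRNAs give the same sign, summing to ±2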
- Calls: active = both siRNAs shift cisplatin killing the same way; inactive = no consistent shift, or siRNA harmful alone
Shown is a random part of about 23,000 reagents. Over the whole deposit, 455 (2%) got an active call. 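Active includes both protection and sensitisation; some change values fall well beyond the stated -50 to +50 range.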 Entries without a mark were called inactive. Not all columns of the deposit are shown. Not stated in the record: the amount of reagent.

Against TKT (transketolase), the values are two-siRNA summed score (-2 to +2) = 0; mean protection from cisplatin (shift in death) (%) = 17.4.
C6orf163 (chromosome 6 open reading frame 163) gave two-siRNA summed score (-2 to +2) = 0; mean protection from cisplatin (shift in death) (%) = 14.4.
With knock-down of GABRB2 (gamma-aminobutyric acid type A receptor subunit beta2), the screen gave two-siRNA summed score (-2 to +2) = 1; mean protection from cisplatin (shift in death) (%) = 16.1.
For LOC387978, the entry reads two-siRNA summed score (-2 to +2) = 0; mean protection from cisplatin (shift in death) (%) = -17.7.
After knock-down of CD8A (CD8 subunit alpha), the record shows two-siRNA summed score (-2 to +2) = -1; mean protection from cisplatin (shift in death) (%) = -19.2.
Silencing of ENPP7 (ectonucleotide pyrophosphatase/phosphodiesterase 7) resulted in: two-siRNA summed score (-2 to +2) = 1; mean protection from cisplatin (shift in death) (%) = 10.3.
Against PLCB4 (phospholipase C beta 4), the entry reads two-siRNA summed score (-2 to +2) = 0; mean protection from cisplatin (shift in death) (%) = 9.3.
HAS3 (hyaluronan synthase 3) showed two-siRNA summed score (-2 to +2) = 1; mean protection from cisplatin (shift in death) (%) = 18.2.
UGT2B15 (UDP glucuronosyltransferase family 2 member B15) scored two-siRNA summed score (-2 to +2) = -1; mean protection from cisplatin (shift in death) (%) = -3.3.
Knock-down of KRT5 (keratin 5) gave: two-siRNA summed score (-2 to +2) = 1; mean protection from cisplatin (shift in death) (%) = 25.3.
Knock-down of LOC390259 resulted in: two-siRNA summed score (-2 to +2) = 1; mean protection from cisplatin (shift in death) (%) = 16.3.
With knock-down of TBX1 (T-box transcription factor 1), the screen gave two-siRNA summed score (-2 to +2) = 1; mean protection from cisplatin (shift in death) (%) = 10.4.
LINC01242 (long independently transcribed non-coding RNA 1242) showed two-siRNA summed score (-2 to +2) = 0; mean protection from cisplatin (shift in death) (%) = 5.5.
Against YJEFN3 (YjeF N-terminal domain containing 3), the values are two-siRNA summed score (-2 to +2) = 1; mean protection from cisplatin (shift in death) (%) = 9.3.
Knock-down of ELP2 (elongator acetyltransferase complex subunit 2) gave: two-siRNA summed score (-2 to +2) = 0; mean protection from cisplatin (shift in death) (%) = -0.5.
Knock-down of CTDSP1 (CTD small phosphatase 1) came out at: two-siRNA summed score (-2 to +2) = 1; mean protection from cisplatin (shift in death) (%) = 6.5.
Depletion of KLHL11 (kelch like family member 11) gave: two-siRNA summed score (-2 to +2) = 0; mean protection from cisplatin (shift in death) (%) = 11.6.
SSR4 (signal sequence receptor subunit 4) showed two-siRNA summed score (-2 to +2) = -1; mean protection from cisplatin (shift in death) (%) = -9.8.
Depletion of PEX26 (peroxisomal biogenesis factor 26) resulted in: two-siRNA summed score (-2 to +2) = 0; mean protection from cisplatin (shift in death) (%) = 14.
After knock-down of PIP4K2B (phosphatidylinositol-5-phosphate 4-kinase type 2 beta), the record shows two-siRNA summed score (-2 to +2) = 0; mean protection from cisplatin (shift in death) (%) = -3.
After knock-down of LOC388701 the results were two-siRNA summed score (-2 to +2) = 0; mean protection from cisplatin (shift in death) (%) = -10.8.
For AKAP12 (A-kinase anchoring protein 12) the deposit lists two-siRNA summed score (-2 to +2) = 0; mean protection from cisplatin (shift in death) (%) = -6.5.
Knock-down of LOC441968 came out at: two-siRNA summed score (-2 to +2) = 2 (active); mean protection from cisplatin (shift in death) (%) = 18.2.
With knock-down of TCIM (transcriptional and immune response regulator), the record shows two-siRNA summed score (-2 to +2) = 1; mean protection from cisplatin (shift in death) (%) = 6.3.
For ELP4 (elongator acetyltransferase complex subunit 4) the deposit lists two-siRNA summed score (-2 to +2) = -1; mean protection from cisplatin (shift in death) (%) = -6.5.
Depletion of IQCN (IQ motif containing N) came out at: two-siRNA summed score (-2 to +2) = 0; mean protection from cisplatin (shift in death) (%) = 1.3.
After knock-down of LINC01548 (long independently transcribed non-coding RNA 1548), the record shows two-siRNA summed score (-2 to +2) = 0; mean protection from cisplatin (shift in death) (%) = -3.2.
C6orf47 (chromosome 6 open reading frame 47) scored two-siRNA summed score (-2 to +2) = 0; mean protection from cisplatin (shift in death) (%) = -2.6.
Silencing of SFN (stratifin) resulted in: two-siRNA summed score (-2 to +2) = -1; mean protection from cisplatin (shift in death) (%) = -17.
CDC42SE2 (CDC42 small effector 2) scored two-siRNA summed score (-2 to +2) = 0; mean protection from cisplatin (shift in death) (%) = 8.
With knock-down of SLC33A2 the results were two-siRNA summed score (-2 to +2) = -1; mean protection from cisplatin (shift in death) (%) = -4.9.

4 entries already listed, arranged by “mean protection from cisplatin (shift in death) (%)”, descending:
HAS3 (hyaluronan synthase 3) | two-siRNA summed score (-2 to +2) = 1; mean protection from cisplatin (shift in death) (%) = 18.2
ENPP7 (ectonucleotide pyrophosphatase/phosphodiesterase 7) | two-siRNA summed score (-2 to +2) = 1; mean protection from cisplatin (shift in death) (%) = 10.3
PLCB4 (phospholipase C beta 4) | two-siRNA summed score (-2 to +2) = 0; mean protection from cisplatin (shift in death) (%) = 9.3
CD8A (CD8 subunit alpha) | two-siRNA summed score (-2 to +2) = -1; mean protection from cisplatin (shift in death) (%) = -19.2
